Assay results published in patent US6544991B2, “Compositions and methods for treating bacterial infections” (priority 2000, dated 2003).
At least one structure is not confirmed: it was looked up by name or label, or the drawing left a doubt.

Test system: MRSA strains
Experiment: MIC by agar dilution or microbroth dilution method (NCCLS)
Format: cell-based, Staph. aureus
Set-up: unit not given beside the values
Details: MRSA strains (n = 38)
Description: Bacterial isolates were obtained from human infections. The isolates were maintained frozen in a liquid nitrogen freezer and plated on Trypticase Soy Agar (TSA) plates supplemented with 5% sheep blood. The quality control strain Staph. aureus 29213 was originally acquired from the American Type Culture Collection (Rockville, Md.).
MICs were determined by an agar dilution method or microbroth dilution method recommended by NCCLS. Synergy was assessed by agar dilution checker-board method. Minimal inhibitory concentrations (MICS) for each separate drug were determined. The fractional inhibitory concentration (FIC) values were calculated by the MIC of Drug A (e.g., sulbactam/ampicillin) and Drug B (e.g., linezolid or arbekacin) in combination/MIC of Drug A or B alone. The FIC index was determined according to the following formula: [formula]

CO/N=C(\C(=O)N[C@@H]1C(=O)N2C(C(=O)O)=CCS[C@H]12)c1csc(N)n1 [CZX, ceftizoxime] was tested, and the “MICs Range” value was 16->128.
